Assay results as given in article PMC11376556.
Results are given in words; binding and its absence hold for the method and conditions named. In cells and extracts the contact can be indirect. Some results given as binding are weak or reduced against the parent protein; the word gives no strength. For some of these results: Sequences can lack the tags named with a protein.

Chains of the proteins cited; added tags and fusions are not shown.
UniProt Q61221: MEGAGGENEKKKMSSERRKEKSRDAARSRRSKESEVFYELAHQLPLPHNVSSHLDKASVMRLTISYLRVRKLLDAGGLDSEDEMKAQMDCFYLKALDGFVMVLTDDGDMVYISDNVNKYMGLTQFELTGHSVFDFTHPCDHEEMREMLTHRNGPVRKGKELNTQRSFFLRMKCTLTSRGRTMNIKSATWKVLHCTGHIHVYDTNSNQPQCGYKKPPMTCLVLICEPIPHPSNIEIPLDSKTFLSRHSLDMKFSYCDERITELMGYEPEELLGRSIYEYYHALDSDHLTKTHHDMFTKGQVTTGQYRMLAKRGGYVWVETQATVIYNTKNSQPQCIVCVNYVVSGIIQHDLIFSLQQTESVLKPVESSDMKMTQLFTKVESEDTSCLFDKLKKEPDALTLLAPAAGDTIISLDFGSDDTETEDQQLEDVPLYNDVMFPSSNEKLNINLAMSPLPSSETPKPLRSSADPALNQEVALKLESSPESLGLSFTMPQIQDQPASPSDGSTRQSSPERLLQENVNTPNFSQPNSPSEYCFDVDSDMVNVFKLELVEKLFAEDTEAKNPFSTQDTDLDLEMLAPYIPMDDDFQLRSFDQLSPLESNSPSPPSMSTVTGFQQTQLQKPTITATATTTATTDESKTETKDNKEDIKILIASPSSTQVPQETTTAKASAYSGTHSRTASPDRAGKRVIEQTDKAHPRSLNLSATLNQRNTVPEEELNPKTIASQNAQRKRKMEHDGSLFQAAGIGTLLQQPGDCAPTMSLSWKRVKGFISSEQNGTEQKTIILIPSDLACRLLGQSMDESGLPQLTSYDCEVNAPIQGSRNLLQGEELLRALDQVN
UniProt P15864: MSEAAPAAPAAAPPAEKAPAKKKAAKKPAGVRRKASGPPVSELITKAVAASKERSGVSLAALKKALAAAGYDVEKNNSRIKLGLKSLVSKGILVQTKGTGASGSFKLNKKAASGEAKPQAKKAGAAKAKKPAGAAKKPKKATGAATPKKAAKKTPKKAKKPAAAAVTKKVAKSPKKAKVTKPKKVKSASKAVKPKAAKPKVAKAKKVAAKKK
UniProt P53762: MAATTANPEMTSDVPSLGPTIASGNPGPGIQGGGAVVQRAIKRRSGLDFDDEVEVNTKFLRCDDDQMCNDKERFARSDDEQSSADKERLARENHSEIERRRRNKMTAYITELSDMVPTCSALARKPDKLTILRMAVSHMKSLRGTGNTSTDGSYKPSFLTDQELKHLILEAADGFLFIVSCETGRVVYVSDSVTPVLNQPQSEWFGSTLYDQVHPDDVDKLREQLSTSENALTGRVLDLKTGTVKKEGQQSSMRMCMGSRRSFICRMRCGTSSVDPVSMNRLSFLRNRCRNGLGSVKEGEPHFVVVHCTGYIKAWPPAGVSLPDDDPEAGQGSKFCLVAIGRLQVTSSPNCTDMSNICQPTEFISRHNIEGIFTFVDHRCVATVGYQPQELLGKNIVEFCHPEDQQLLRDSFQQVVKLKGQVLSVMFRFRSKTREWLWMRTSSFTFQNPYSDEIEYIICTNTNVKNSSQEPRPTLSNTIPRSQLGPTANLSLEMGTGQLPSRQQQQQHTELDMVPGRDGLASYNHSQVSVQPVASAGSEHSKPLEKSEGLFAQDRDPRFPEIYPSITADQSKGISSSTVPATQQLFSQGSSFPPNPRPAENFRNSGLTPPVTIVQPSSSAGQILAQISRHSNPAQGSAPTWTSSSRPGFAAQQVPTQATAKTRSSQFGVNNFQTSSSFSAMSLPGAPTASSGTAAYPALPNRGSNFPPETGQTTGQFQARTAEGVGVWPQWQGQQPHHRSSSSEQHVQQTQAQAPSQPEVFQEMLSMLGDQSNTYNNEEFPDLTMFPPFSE
UniProt P11103: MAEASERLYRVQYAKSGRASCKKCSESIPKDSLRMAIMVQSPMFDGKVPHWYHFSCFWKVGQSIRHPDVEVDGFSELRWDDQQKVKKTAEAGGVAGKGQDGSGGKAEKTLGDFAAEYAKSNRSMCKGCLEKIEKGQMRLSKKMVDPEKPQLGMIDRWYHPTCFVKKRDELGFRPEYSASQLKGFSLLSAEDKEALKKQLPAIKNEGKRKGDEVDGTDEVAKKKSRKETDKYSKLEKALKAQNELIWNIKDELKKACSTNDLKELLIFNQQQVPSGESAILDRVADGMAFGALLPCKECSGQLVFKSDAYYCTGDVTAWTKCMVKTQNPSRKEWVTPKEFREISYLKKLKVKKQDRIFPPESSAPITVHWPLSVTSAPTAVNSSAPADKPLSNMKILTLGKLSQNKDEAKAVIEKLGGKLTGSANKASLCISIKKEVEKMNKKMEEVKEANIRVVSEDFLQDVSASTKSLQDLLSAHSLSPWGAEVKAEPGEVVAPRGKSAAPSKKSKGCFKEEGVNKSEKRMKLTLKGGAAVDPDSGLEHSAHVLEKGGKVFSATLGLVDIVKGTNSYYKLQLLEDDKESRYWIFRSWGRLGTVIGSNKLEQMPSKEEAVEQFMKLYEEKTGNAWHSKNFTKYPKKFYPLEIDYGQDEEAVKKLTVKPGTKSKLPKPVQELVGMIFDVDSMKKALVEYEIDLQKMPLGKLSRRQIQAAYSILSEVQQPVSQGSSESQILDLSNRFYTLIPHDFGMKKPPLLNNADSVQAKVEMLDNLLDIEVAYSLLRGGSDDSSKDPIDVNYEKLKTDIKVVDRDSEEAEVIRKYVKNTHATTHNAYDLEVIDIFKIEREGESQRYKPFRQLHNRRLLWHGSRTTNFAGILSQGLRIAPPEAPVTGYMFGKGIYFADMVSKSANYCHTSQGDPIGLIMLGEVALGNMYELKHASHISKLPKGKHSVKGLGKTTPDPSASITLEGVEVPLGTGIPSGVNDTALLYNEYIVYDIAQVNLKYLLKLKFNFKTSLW

B1: RBM39 (mouse cDNA in PRK-flag) (protein, UniProt Q8VH51 1-530)
chain: MADDIDIEAMLEAPYKKDENKLNSANGHEERSKKRKKSKSRSRSHERKRSKSKERKRSRDRERKKSKSRERKRSRSKERRRSRSRSRDRRFRGRYRSPYSGPKFNSAIRGKIGLPHSIKLSRRRSRSKSPFRKDKSPVREPIDNLTPEERDARTVFCMQLAARIRPRDLEEFFSTVGKVRDVRMISDRNSRRSKGIAYVEFVDVSSVPLAIGLTGQRVLGVPIIVQASQAEKNRAAAMANNLQKGSAGPMRLYVGSLHFNITEDMLRGIFEPFGRIESIQLMMDSETGRSKGYGFITFSDSECAKKALEQLNGFELAGRPMKVGHVTERTDASSASSFLDSDELERTGIDLGTTGRLQLMARLAEGTGLQIPPAAQQALQMSGSLAFGAVAEFSFVIDLQTRLSQQTEASALAAAASVQPLATQCFQLSNMFNPQTEEEVGWDTEIKDDVIEECNKHGGVIHIYVDKNSAQGNVYVKCPSIAAAIAAVNALHGRWFAGKMITAAYVPLPTYHNLFPDSMTATQLLVPSRR

Assays:
[1] = target: MYC-HIF-1α (mouse cDNA in pCSII-MT) (mouse) (UniProt Q61221); experiment: co-IP; MYC-HIF-1α, FLAG-HIF-1β with or without GFP-H1.2 in HEK293T cells; also with Acriflavine (ACF) or TAT-cyclo-CLLFVY; H1.2 enhanced the co-precipitate and reduced the inhibition by ACF and TAT
[2] = target: GFP-tagged histone H1.2 (mouse HIST1H1C cDNA in pEGFP-N1) (mouse) (UniProt P15864); experiment: co-IP; HEK293T cells transfected with pEGFP-N1-H1.2 (pEGFP-N1 as control); IP lysis solution 50 mM Tris-HCl, 150 mM NaCl, 1% Triton-100, 1 mM EDTA, pH 7.5; anti-GFP beads 3 h at 4°C; washed with PBST; western blot

| Molecule | binding [1] | binding [2] |
| --- | --- | --- |
| FLAG-HIF-1β (from UniProt P53762 1-791) | binds | no binding |
| PARP1 (mouse cDNA in PRK-flag) (from UniProt P11103 1-1013) (enzyme) |  | binds |
| B1 |  | binds |
